{"sequences": {"note": "Chains of the proteins cited; added tags and fusions are not shown. Lines headed by an entry give the natural chain unless they say otherwise; changes in a name come on top.", "UniProt O75449": "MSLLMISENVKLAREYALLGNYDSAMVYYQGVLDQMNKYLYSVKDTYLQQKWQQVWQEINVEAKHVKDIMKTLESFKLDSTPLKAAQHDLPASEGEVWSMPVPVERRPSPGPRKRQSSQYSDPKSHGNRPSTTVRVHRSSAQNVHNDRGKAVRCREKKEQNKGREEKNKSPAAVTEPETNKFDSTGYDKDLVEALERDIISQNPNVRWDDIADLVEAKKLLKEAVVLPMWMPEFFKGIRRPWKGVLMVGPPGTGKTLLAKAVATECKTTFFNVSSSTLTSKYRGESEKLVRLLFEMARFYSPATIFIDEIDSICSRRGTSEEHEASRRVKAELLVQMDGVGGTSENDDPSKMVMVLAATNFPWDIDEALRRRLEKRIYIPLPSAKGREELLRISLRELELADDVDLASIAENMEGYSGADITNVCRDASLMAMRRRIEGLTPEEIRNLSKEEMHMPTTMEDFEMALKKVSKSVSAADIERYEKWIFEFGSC", "UniProt Q9BW62": "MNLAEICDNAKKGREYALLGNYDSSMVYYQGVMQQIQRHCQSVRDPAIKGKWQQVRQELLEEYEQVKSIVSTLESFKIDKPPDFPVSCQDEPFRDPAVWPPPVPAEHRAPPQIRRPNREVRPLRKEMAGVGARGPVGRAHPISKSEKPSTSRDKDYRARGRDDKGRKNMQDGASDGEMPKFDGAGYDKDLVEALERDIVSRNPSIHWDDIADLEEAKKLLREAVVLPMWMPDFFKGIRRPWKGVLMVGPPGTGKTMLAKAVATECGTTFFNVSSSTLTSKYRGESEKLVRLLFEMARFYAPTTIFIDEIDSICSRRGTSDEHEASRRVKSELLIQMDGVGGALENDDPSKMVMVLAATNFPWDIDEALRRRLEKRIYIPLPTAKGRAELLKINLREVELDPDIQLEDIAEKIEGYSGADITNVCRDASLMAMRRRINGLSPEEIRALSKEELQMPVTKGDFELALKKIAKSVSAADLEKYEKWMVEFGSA", "UniProt Q7L273": "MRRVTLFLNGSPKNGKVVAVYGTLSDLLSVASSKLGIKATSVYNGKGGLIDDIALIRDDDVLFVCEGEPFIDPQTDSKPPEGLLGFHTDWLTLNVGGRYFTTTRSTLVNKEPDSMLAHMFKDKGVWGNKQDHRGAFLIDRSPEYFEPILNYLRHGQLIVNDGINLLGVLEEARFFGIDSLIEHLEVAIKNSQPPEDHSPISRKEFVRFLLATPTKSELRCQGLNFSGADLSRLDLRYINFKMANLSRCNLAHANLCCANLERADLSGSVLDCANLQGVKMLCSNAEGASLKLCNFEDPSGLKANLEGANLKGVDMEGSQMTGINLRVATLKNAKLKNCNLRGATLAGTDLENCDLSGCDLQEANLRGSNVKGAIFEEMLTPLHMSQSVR", "UniProt Q14681": "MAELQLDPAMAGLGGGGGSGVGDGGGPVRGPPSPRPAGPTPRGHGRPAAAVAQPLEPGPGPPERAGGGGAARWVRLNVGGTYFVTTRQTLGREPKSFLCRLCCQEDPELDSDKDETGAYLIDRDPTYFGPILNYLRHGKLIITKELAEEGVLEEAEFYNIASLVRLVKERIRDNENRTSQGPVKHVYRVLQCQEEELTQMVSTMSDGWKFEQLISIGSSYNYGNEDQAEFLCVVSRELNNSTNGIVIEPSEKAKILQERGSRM", "UniProt P19823": "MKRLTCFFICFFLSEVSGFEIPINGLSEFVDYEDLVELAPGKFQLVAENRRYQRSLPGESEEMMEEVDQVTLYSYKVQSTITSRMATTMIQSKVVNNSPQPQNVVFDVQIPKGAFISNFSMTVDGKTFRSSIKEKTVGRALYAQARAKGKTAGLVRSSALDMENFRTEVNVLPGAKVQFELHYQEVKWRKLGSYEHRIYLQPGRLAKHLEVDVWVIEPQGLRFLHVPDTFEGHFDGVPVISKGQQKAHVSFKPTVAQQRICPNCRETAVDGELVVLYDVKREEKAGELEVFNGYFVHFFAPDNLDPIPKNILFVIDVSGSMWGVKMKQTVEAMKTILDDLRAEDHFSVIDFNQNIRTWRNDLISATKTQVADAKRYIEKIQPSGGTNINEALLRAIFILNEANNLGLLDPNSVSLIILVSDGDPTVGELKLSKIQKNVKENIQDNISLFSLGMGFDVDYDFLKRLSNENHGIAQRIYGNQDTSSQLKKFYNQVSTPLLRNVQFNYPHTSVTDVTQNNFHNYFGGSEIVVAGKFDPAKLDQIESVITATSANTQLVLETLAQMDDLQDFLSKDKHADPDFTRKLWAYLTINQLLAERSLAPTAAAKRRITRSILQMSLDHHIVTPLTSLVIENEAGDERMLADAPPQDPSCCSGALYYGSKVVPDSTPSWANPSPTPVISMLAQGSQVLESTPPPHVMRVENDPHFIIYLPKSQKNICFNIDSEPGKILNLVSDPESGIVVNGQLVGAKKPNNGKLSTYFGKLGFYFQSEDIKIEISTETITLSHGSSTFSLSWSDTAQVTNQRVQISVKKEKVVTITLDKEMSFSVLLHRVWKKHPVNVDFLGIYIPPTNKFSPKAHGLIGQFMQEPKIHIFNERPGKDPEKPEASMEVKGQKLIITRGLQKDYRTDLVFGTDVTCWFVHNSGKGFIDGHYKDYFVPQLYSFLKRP", "UniProt Q9NXV2": "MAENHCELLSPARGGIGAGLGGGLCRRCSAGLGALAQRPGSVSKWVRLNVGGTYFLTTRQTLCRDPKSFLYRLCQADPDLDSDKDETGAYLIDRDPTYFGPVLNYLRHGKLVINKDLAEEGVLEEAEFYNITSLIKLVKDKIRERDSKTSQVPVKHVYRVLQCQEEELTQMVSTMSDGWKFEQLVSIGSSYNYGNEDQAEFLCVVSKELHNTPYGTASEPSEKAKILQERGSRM", "UniProt O43736": "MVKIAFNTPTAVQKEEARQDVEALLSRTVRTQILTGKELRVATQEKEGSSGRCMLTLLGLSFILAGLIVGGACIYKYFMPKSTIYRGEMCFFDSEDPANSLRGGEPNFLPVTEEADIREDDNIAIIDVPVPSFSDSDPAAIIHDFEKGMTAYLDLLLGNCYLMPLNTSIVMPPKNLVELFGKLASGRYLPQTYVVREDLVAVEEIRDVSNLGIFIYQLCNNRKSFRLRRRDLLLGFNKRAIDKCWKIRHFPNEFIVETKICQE", "UniProt Q96AB3": "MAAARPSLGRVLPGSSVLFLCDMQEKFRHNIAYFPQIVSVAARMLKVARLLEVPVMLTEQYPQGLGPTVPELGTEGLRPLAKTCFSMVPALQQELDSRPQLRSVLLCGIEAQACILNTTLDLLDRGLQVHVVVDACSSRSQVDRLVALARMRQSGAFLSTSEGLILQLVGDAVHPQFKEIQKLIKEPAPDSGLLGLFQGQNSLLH", "UniProt Q9Y4C1": "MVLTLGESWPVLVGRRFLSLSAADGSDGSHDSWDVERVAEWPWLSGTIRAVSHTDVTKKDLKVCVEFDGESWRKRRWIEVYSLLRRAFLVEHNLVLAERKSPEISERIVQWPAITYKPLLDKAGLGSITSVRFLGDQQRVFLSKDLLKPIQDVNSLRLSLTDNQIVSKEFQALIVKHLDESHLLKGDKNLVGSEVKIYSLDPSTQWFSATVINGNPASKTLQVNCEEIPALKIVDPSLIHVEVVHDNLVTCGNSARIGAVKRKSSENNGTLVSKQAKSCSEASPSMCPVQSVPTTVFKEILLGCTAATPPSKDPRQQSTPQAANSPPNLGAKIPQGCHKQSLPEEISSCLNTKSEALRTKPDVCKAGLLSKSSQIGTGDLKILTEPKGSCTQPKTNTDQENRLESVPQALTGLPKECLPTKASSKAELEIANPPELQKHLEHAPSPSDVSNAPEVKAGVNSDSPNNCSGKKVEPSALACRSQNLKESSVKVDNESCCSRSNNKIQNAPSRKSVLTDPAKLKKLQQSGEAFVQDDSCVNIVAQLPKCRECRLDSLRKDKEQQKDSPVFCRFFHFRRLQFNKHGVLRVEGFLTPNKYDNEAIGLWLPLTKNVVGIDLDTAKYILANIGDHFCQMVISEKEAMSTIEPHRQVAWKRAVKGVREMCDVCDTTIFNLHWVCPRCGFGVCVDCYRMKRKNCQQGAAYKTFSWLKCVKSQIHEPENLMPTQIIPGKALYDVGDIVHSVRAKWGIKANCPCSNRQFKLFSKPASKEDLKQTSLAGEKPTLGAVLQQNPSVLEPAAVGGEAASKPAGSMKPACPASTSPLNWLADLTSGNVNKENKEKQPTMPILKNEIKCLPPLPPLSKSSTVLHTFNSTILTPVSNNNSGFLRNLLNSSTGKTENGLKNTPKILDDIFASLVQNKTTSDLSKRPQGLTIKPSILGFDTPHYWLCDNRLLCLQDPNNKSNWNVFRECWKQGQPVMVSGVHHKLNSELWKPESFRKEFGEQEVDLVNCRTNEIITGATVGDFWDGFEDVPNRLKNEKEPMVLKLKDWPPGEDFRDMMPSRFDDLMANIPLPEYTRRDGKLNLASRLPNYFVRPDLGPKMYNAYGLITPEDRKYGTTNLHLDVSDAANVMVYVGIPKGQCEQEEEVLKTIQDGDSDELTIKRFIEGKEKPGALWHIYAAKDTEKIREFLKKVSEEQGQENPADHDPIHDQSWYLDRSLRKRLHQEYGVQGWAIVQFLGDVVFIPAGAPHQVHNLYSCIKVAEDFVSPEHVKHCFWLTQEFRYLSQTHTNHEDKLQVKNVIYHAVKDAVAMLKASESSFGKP", "UniProt Q7Z5Y7": "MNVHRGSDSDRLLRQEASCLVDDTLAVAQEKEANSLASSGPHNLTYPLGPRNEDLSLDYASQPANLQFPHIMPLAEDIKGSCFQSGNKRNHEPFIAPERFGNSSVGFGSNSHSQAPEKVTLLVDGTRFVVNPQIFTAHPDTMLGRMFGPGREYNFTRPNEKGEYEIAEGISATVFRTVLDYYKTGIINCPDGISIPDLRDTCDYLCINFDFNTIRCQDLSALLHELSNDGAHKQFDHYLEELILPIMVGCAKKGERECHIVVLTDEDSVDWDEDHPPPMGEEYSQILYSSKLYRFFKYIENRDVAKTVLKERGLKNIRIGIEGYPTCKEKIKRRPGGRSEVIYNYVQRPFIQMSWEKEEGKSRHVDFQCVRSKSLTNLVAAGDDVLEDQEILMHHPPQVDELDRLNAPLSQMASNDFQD", "UniProt Q9H1K1": "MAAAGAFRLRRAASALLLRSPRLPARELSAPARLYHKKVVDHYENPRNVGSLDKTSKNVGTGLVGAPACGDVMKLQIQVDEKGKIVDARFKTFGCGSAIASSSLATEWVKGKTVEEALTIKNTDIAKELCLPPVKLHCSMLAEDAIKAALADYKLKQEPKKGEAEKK", "UniProt Q8IY47": "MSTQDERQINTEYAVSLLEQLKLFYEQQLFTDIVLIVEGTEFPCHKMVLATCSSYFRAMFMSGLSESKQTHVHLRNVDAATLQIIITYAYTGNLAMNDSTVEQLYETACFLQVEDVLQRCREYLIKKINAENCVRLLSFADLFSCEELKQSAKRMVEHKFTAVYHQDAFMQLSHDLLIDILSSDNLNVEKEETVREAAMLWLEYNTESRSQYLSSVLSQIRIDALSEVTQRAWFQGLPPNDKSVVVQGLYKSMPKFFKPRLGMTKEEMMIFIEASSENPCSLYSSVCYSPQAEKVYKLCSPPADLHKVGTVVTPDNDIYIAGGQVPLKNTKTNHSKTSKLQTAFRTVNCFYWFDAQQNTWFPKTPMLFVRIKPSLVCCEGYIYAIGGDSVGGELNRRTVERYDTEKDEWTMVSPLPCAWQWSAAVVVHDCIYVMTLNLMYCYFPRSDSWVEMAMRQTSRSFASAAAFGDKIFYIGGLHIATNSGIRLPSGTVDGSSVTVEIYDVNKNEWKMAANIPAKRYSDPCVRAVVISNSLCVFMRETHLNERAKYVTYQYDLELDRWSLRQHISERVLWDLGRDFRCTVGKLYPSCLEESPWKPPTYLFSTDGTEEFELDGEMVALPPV", "UniProt Q86U28": "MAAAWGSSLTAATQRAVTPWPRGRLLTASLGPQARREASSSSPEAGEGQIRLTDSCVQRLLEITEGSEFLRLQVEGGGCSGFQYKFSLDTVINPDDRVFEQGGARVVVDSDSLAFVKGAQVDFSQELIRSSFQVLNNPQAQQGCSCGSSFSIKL", "UniProt Q9BUE6": "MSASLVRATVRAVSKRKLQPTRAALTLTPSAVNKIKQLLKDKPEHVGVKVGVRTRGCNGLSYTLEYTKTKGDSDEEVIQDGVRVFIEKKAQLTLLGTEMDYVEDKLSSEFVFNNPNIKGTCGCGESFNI", "UniProt Q9H7Z6": "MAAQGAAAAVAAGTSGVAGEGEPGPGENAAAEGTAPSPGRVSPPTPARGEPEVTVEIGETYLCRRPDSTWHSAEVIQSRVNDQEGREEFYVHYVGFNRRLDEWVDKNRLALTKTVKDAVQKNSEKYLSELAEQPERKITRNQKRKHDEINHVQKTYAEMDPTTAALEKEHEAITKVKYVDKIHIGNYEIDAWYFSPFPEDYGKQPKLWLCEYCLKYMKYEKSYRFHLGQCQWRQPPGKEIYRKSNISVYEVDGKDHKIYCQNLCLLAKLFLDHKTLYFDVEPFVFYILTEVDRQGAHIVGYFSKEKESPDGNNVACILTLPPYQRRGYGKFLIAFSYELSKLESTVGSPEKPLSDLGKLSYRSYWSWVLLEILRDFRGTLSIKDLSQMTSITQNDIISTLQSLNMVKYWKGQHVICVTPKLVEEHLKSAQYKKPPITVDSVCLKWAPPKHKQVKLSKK"}, "source": "the supplement of paper PMC10849652", "note": "Some of the results follow.", "data": [{"compound": "CC1=C2C(=CC=C1)N=C(N(C2=O)C3=CC=CC=C3C)CN4C=NC5=C(N=CN=C54)N", "test": "log2 fold change, soluble protein after heating vs DMSO (PISA); higher = thermal stabilisation; K562 lysate, 10 uM; active = over 0.2 and 3.5 SD of the protein, either way, in both replicates (recomputed)", "procedure,_shortened": "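Pellets of K562 cells were dounce-homogenised in PBS pH 7.4 with 1 mM MgCl2, and the crude extract was held at 1 mg/mL protein for a 30 min treatment with 10 μM compound. Aliquots were heated for 3 min over 48°C-58°C and pooled before NP-40 was added to 0.5% at 4°C. The supernatant from 21,000xg for 90 min was quantified by TMTpro 16plex LC-MS/MS with channel sums equalised. Values are reported from duplicates as log-two fold change in thermal stability relative to solvent controls.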", "values": [{"target": "IRAK1 (UniProt P51617)", "log2 fold change": "inactive: -0.001"}, {"target": "IRF2BPL (UniProt Q9H1B7)", "log2 fold change": "inactive: 0"}, {"target": "KATNA1 (UniProt O75449)", "log2 fold change": "inactive: -0.02"}, {"target": "KATNAL1 (UniProt Q9BW62)", "log2 fold change": "inactive: -0.075"}, {"target": "IPO11 isoform 2 (UniProt Q9UI26)", "log2 fold change": "inactive: 0.014"}, {"target": "ITPR1 (UniProt Q14643)", "log2 fold change": "inactive: 0.045"}, {"target": "KCTD15 (UniProt Q96SI1)", "log2 fold change": "inactive: -0.039"}, {"target": "KANSL3 (UniProt Q9P2N6)", "log2 fold change": "inactive: 0.021"}, {"target": "KCTD9 (UniProt Q7L273)", "log2 fold change": "inactive: 0"}, {"target": "KCTD2 (UniProt Q14681)", "log2 fold change": "inactive: -0.032"}, {"target": "ITIH2 (UniProt P19823)", "log2 fold change": "inactive: 0.012"}, {"target": "KCTD5 (UniProt Q9NXV2)", "log2 fold change": "inactive: 0.016"}, {"target": "ITM2A (UniProt O43736)", "log2 fold change": "inactive: 0.004"}, {"target": "JMJD6 isoform 3 (UniProt Q6NYC1)", "log2 fold change": "inactive: -0.032"}, {"target": "KCNAB2 (UniProt Q13303)", "log2 fold change": "inactive: -0.002"}, {"target": "ISOC2 (UniProt Q96AB3)", "log2 fold change": "inactive: 0.085"}, {"target": "KDM3A (UniProt Q9Y4C1)", "log2 fold change": "inactive: -0.018"}, {"target": "KCTD20 (UniProt Q7Z5Y7)", "log2 fold change": "inactive: 0.097"}, {"target": "KDM1B (UniProt Q8NB78)", "log2 fold change": "inactive: 0.092"}, {"target": "ISCU (UniProt Q9H1K1)", "log2 fold change": "inactive: -0.053"}, {"target": "IQCB1 (UniProt Q15051)", "log2 fold change": "inactive: -0.112"}, {"target": "KBTBD2 (UniProt Q8IY47)", "log2 fold change": "inactive: 0.025"}, {"target": "IREB2 (UniProt P48200)", "log2 fold change": "inactive: -0.002"}, {"target": "IRF2BP1 (UniProt Q8IU81)", "log2 fold change": "inactive: -0.043"}, {"target": "ITGAE (UniProt P38570)", "log2 fold change": "inactive: 0.011"}, {"target": "INTS14 (UniProt Q96SY0)", "log2 fold change": "inactive: -0.038"}, {"target": "ISY1 isoform 1 (UniProt Q9ULR0)", "log2 fold change": "inactive: 0.001"}, {"target": "IQSEC2 (UniProt Q5JU85)", "log2 fold change": "inactive: 0.041"}, {"target": "IRF2 (UniProt P14316)", "log2 fold change": "inactive: 0.007"}, {"target": "ITGB1BP1 (UniProt O14713)", "log2 fold change": "inactive: -0.066"}, {"target": "JAK3 (UniProt P52333)", "log2 fold change": "inactive: -0.129"}, {"target": "IQUB (UniProt Q8NA54)", "log2 fold change": "inactive: -0.222"}, {"target": "ISCA2 (UniProt Q86U28)", "log2 fold change": "inactive: -0.02"}, {"target": "ISCA1 isoform 2 (UniProt Q9BUE6)", "log2 fold change": "inactive: 0.016"}, {"target": "KAT6B (UniProt Q8WYB5)", "log2 fold change": "inactive: 0.078"}, {"target": "INTS4 (UniProt Q96HW7)", "log2 fold change": "inactive: 0.105"}, {"target": "KAT8 (UniProt Q9H7Z6)", "log2 fold change": "inactive: -0.082"}]}]}
